PubChem BioAssay AID1259308 | NCATS | 2017
The deposit covers about 59,000 reagents; below is a part drawn at random. About 1,510 of them (2.6%) count as active. 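Calls use total luciferase alone and ignore viability, so some active siRNAs may act by altering cell number.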 A number with no mark means an inactive call.

- Assay: 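Knock-downs that increase output of a recombinant reporter protein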 (primary screen)
- Cell system: human HEK293 embryonic kidney cells stably expressing firefly luciferase (HEK-CMV-Luc2-Hygro)
- Knock-down reagent: single siRNA against human genes, 0.8 pmol siRNA per well
- Time to read-out: 72 h
- Measured: 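Reporter luminescence and viable-cell signal on separate replicate plates, given as percent of non-targeting control and median/MAD z-scores, plus per-cell luciferase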
- Reading the numbers: total luciferase, z-score and total luciferase, % of control: higher = more reporter protein produced; luciferase per cell, z-score: higher = more reporter output per viable cell; viable cells, % of control: higher = more viable cells
- Rule for the call: 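Active when the median/MAD z-score for overall luciferase is greater than 3; a gene was taken forward for validation with new siRNAs if at least two of its three siRNAs passed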
- Calls: active = raised luciferase; inactive = no rise

no.	gene knocked down	PubChem SID	total luciferase, z-score	total luciferase, % of control	luciferase per cell, z-score	viable cells, % of control
1	PCYOX1	SID160740829	0.438	90.6	1.36	70.7
2	PCYOX1	SID160740830	-0.803	65.9	-1.27	103
3	PCYOX1	SID160740831	-0.96	62.8	-1.03	91.9
4	TRA2A	SID160739252	0.6	93.8	0.437	93.4
5	TRA2A	SID160739253	-0.314	75.6	-0.19	88.9
6	TRA2A	SID160739254	-0.527	71.4	-0.858	100
7	RMC1	SID160739292	-0.174	78.4	-0.525	101
8	RMC1	SID160739293	0.95	101	0.0693	111
9	RMC1	SID160739294	0.357	89	0.779	81
10	GJD2	SID160745909	0.552	92.9	0.346	94.7
11	GJD2	SID160745910	-0.104	79.8	-0.339	97.5
12	GJD2	SID160745911	0.719	96.2	0.39	97
13	ZNF408	SID160749457	-0.342	75.1	-0.255	89.7
14	ZNF408	SID160749458	0.329	88.4	0.891	78.2
15	ZNF408	SID160749460	0.415	90.1	1.83	62.3
16	MAN2A2	SID160731215	-1.93	43.5	-1.23	67.2
17	MAN2A2	SID160760190	-0.344	75	-0.667	99.9
18	MAN2A2	SID160760399	-0.117	79.6	-0.212	94
19	MTERF1	SID160719518	0.327	88.4	0.151	94.9
20	MTERF1	SID160719519	-1.35	55.1	-1.53	92
21	MTERF1	SID160731930	0.422	90.3	0.256	94.3

Taken from above.
MAN2A2 [SID160760399], luciferase per cell, z-score → -0.212
Under “total luciferase, % of control”, PCYOX1 [SID160740830] has 65.9
TRA2A [SID160739253], viable cells, % of control → 88.9
Under “total luciferase, % of control”, PCYOX1 [SID160740831] reads 62.8
GJD2 [SID160745909], luciferase per cell, z-score = 0.346
Result of RMC1 [SID160739293] in “total luciferase, z-score”: 0.95

Continued:
no.	gene knocked down	PubChem SID	total luciferase, z-score	total luciferase, % of control	luciferase per cell, z-score	viable cells, % of control
22	NOL11	SID160737269	-0.488	72.2	-0.106	83
23	NOL11	SID160737270	-0.727	67.4	-0.616	88.6
24	NOL11	SID160737271	-1.46	52.8	-1.57	89.2
25	PRR15	SID160761814	3.34 (active)	148	1.52	111
26	PRR15	SID160761815	-0.15	78.9	-0.675	105
27	PRR15	SID160761816	3.46 (active)	151	1.88	103
28	PIBF1	SID160728487	-0.879	64.4	-1.27	100
29	PIBF1	SID160728488	-0.241	77.1	-0.395	95.6
30	PIBF1	SID160728489	-1.4	54.1	-1.06	79.9
31	RPS18P10	SID160734510	-2.02	41.7	-1.07	61.7
32	RPS18P10	SID160772622	-1.66	48.8	-1.85	88.8
33	RPS18P10	SID160772623	-0.826	65.5	-0.626	86.3
34	ZYG11B	SID160749226	0.0351	82.6	-0.326	101
35	ZYG11B	SID160749227	0.0147	82.2	-0.11	94.5
36	ZYG11B	SID160749228	0.257	87	0.415	87.2
37	LIN9	SID160731024	0.0906	83.7	0.446	83.1
38	LIN9	SID160763891	0.97	101	0.505	99
39	LIN9	SID160763892	-0.478	72.4	-1.01	105
